From paper PMC10279885
Results are given in words; binding and its absence hold for the method and conditions named. In cells and extracts the contact can be indirect. Some results given as binding are weak or reduced against the parent protein; the word gives no strength. For some assays here: Tags and fused reporters may be left off the sequences shown.

Assays:
[1] = molecular target: NAI2 (wild type), expressed as NAI2:HA and as NAI2:GFP (Arabidopsis thaliana) (UniProt Q9LSB4); test: co-IP; N. benthamiana leaf extracts 5 d after agro-infiltration; IP buffer 50 mM Tris-HCl pH 7.5, 150 mM NaCl, 0.1% Triton X-100; anti-GFP antibody overnight at 4 °C, protein-A beads; western blot with anti-HA and anti-GFP
[2] = molecular target: NAI2 (full length), expressed as NAI2:NV and as NAI2:CV for BiFC (Arabidopsis thaliana) (UniProt Q9LSB4); test: split reporter; BiFC with NV and CV fragments of Venus in N. benthamiana leaves, confocal microscopy 5 d after agro-infiltration

binding [1] | binding [2] | Binder
binds |  | NAI2 (wild type), expressed as NAI2:HA and as NAI2:GFP (protein, UniProt Q9LSB4 25-772) QDEGTGSLSTLDLIEHEYQTSVNSLQGNEAVDQTETSGQKNSTVSDNNTISLSLSEEPALETLKESVDTSAELGAVTDEVDKPSSMLDHIELEFEAHINELKEAGSDGINKVEESKDDEEAARRHKMLEAIEREFEAAHAGFEQLKTDDSAQGLDDEQSAKRQSMLDEIERDFEAATKGLEQLKADDLTGINDEEHAAKRQKMLEEIEREFEEATKGLEELRHSTSSTDDEAQSAKRQNMLDEIEREFEAATSGLKELKINAHTVKDDVDDKEQDAKRQSMLDAIEREFEAVTESFKQLEDIADNKAEGDDESAKRQSMLDEIEREFEAATNSLKQLNLDDFSEGDDSAESARRNSMLEAIEREFEAATKGLEELKANDSTGDKDDDEHVARRKIMLEAIEREFEAATKGLEELKNESEQAENKRNSMLEAFEREFEAATNAKANGENSAKNPSTISTTVQKSSGGYNAGLEGLLKPADGVCGCFNKDKDGLQADTDSSINIAEILAEESKLQGSGTSRLTTSLNNLVDTHRKETSSKVGSVLGSSSSVTSTTSESAATSESIESLKQTLRKLRGLSARDLVNHPNFDAIIAAGTRYEVLSSASIGYISLLAKYKTVIKEGLEASQRVQIAQTRAKLLKETAMEKQRTVDSVFAAAKTTAQRGDALHIRIVAIKKLLAKLEAEKVDVDSKFTSLTTSLSELLKEASQAYEEYHEAVHKAKDEQAAEEFAVETTKRAEHIWVEFLSSLN
 | binds | NAI2 (full length), expressed as NAI2:NV and as NAI2:CV for BiFC (protein, UniProt Q9LSB4 25-772) QDEGTGSLSTLDLIEHEYQTSVNSLQGNEAVDQTETSGQKNSTVSDNNTISLSLSEEPALETLKESVDTSAELGAVTDEVDKPSSMLDHIELEFEAHINELKEAGSDGINKVEESKDDEEAARRHKMLEAIEREFEAAHAGFEQLKTDDSAQGLDDEQSAKRQSMLDEIERDFEAATKGLEQLKADDLTGINDEEHAAKRQKMLEEIEREFEEATKGLEELRHSTSSTDDEAQSAKRQNMLDEIEREFEAATSGLKELKINAHTVKDDVDDKEQDAKRQSMLDAIEREFEAVTESFKQLEDIADNKAEGDDESAKRQSMLDEIEREFEAATNSLKQLNLDDFSEGDDSAESARRNSMLEAIEREFEAATKGLEELKANDSTGDKDDDEHVARRKIMLEAIEREFEAATKGLEELKNESEQAENKRNSMLEAFEREFEAATNAKANGENSAKNPSTISTTVQKSSGGYNAGLEGLLKPADGVCGCFNKDKDGLQADTDSSINIAEILAEESKLQGSGTSRLTTSLNNLVDTHRKETSSKVGSVLGSSSSVTSTTSESAATSESIESLKQTLRKLRGLSARDLVNHPNFDAIIAAGTRYEVLSSASIGYISLLAKYKTVIKEGLEASQRVQIAQTRAKLLKETAMEKQRTVDSVFAAAKTTAQRGDALHIRIVAIKKLLAKLEAEKVDVDSKFTSLTTSLSELLKEASQAYEEYHEAVHKAKDEQAAEEFAVETTKRAEHIWVEFLSSLN
